Data from paper PMC5010073.
Results are given in words; binding and its absence hold for the method and conditions named. In cells and extracts the contact can be indirect. Some entries that bind do so weakly or less than the wild type.

Protein sequences, listed by entry. Tags and fused reporters are not part of them.
UniProt Q99PV8: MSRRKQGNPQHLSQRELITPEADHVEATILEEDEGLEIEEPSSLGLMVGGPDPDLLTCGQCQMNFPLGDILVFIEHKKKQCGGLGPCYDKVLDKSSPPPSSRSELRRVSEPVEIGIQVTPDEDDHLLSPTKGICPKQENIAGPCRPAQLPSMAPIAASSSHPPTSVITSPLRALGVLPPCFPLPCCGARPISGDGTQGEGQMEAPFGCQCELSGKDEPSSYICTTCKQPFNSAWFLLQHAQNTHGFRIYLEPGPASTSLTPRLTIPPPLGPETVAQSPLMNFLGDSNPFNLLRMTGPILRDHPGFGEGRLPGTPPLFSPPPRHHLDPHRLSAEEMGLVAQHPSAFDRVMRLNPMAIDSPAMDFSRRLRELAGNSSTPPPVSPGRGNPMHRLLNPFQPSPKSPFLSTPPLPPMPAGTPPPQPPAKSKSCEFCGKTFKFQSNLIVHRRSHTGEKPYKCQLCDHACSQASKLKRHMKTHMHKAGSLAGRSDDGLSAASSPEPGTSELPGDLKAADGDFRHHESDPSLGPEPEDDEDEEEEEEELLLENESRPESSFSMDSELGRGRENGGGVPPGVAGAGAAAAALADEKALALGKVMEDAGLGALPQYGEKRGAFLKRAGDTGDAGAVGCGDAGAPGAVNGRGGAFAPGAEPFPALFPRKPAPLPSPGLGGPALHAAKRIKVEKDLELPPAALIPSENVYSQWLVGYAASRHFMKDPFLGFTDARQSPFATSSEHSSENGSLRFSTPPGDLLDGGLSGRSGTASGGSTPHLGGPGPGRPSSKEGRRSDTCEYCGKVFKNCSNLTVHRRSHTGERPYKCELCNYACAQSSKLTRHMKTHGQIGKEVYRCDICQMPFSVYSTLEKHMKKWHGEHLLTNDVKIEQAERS
UniProt P28033: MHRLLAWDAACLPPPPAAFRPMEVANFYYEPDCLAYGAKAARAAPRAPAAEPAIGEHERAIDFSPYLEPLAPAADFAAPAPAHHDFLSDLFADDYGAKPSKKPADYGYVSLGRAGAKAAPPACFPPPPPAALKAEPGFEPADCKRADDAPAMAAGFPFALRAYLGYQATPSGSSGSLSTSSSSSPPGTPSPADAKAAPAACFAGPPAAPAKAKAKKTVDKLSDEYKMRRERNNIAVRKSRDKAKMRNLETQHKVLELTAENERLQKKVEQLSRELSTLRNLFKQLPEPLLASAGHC

How the values were obtained:
BCL11B-3 × FLAG (mouse) = BCL11B-3 × FLAG (mouse) (UniProt Q99PV8); test: co-IP; HEK293 cells transfected with Myc-C/EBPβ and BCL11B-3xFLAG; lysed in RIPA buffer (50 mM Tris-HCl pH 8.0, 150 mM NaCl, 0.1% SDS, 0.5% deoxycholate, 1% Triton X-100); IP with anti-FLAG, immunoblot with anti-c-Myc and anti-FLAG
[1] = biological target: endogenous BCL11B (mouse (endogenous in 3T3-L1)) (UniProt Q99PV8); test: co-IP; endogenous proteins; 3T3-L1 cells differentiated into adipocytes for 24 h, lysed; IP with anti-BCL11B (NB600-262), immunoblot with anti-BCL11B and anti-C/EBP antibodies

binding (BCL11B-3 × FLAG (mouse)) | binding [1] | Substance
binds |  | Myc-C/EBPβ (from UniProt P28033 1-296)
 | binds | endogenous C/EBPβ (from UniProt P28033 1-296)
